Assay results: article PMC3817791
No constants are given. Whether binding was seen depends on the method and setting. Binding seen in cells or lysates may run through a third protein.

Sequences of proteins named here, by UniProt entry; tags and fusion partners are left off. A change or cut given only in a name is not applied to a line headed by its entry. A line that says so, or that is headed by a name, gives the form on record, which may keep a tag or linker.
UniProt P84095: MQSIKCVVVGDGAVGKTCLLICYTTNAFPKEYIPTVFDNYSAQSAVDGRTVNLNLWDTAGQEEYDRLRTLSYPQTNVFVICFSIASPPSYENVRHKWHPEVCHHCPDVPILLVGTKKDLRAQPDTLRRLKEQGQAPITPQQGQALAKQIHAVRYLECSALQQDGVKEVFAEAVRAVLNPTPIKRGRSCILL
GST–RhoG-L61 (P84095, form named): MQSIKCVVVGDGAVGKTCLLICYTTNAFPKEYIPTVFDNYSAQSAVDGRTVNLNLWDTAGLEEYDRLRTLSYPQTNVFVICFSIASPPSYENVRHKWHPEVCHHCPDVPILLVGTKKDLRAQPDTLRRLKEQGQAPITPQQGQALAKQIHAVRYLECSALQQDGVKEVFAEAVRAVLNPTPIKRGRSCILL
MBP-tagged RhoG-V12 (P84095, form named): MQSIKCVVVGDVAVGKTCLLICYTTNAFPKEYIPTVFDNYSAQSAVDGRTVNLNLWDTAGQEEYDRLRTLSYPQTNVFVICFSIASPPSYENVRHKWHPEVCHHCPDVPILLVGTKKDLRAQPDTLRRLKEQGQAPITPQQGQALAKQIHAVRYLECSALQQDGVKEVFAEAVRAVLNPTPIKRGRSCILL
UniProt Q7TMB8: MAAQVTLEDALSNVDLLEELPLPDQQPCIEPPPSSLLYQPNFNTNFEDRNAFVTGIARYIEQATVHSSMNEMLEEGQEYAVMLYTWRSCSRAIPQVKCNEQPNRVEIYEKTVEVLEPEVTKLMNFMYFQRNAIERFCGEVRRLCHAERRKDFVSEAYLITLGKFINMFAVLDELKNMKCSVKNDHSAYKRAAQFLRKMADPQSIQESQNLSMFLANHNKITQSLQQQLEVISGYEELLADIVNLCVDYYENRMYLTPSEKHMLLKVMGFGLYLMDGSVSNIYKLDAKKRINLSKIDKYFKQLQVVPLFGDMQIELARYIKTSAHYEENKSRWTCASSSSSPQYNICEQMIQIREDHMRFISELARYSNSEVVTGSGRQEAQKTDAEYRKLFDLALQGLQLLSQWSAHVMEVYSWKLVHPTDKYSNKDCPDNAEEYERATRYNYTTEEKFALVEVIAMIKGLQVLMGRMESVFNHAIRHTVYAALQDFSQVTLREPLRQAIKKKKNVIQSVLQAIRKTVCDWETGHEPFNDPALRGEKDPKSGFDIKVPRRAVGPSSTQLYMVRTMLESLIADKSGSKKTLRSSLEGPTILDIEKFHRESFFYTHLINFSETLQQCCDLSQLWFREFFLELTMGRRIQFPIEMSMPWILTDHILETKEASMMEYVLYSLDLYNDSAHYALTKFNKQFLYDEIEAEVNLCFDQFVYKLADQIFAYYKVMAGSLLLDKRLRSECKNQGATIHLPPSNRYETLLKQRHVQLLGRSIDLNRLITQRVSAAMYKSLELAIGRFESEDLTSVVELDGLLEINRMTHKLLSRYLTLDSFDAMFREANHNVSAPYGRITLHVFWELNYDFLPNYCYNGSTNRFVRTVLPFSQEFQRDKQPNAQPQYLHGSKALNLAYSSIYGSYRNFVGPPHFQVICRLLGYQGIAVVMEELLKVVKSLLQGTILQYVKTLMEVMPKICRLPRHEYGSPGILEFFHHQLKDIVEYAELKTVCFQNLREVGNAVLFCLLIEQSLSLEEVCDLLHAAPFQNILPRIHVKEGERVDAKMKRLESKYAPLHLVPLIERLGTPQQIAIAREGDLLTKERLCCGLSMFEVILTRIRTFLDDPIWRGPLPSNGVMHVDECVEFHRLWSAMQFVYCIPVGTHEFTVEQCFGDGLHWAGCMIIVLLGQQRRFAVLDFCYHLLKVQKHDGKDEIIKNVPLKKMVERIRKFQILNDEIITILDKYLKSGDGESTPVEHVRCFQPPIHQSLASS

What was measured:
[1] = molecular target: GST–RhoG-L61 (UniProt P84095); assay: pull-down; 200 pmol recombinant GTPase bound to resin incubated with 800 µg cleared B16-F1 cell lysate in buffer L1 (50 mM Tris-HCl, 50 mM NaCl, 15 mM KCl, 15 mM MgCl2, 1 mM EGTA, 20 mM NaF, 1% PEG 3350, 1% Triton X-100, pH 7.5), 1 hour, 4°C; bound Sra-1 detected by western blot; only the target purified
[2] = molecular target: MBP-tagged RhoG-V12 (UniProt P84095); assay: as above

Sra-1 (from UniProt Q7TMB8 1-1253)
binding [1]: no binding (tested: 200 pmol bait on resin, 800 µg lysate) | binding [2]: no binding (tested: 200 pmol bait on resin, 800 µg lysate)
